Measurements as given in article PMC4040925.
No constants are given. Whether binding was seen depends on the method and setting. For some of these results: Binding calls can cover weak binding; strength is not graded here. Values belong to the molecule of their own block, whether it stands above or below them.

Chains of the proteins cited; added tags and fusions are not shown. Lines headed by an entry give the natural chain unless they say otherwise; changes in a name come on top. A line that says so, or that is headed by a name, gives the form on record, which may keep a tag or linker.
UniProt P18206: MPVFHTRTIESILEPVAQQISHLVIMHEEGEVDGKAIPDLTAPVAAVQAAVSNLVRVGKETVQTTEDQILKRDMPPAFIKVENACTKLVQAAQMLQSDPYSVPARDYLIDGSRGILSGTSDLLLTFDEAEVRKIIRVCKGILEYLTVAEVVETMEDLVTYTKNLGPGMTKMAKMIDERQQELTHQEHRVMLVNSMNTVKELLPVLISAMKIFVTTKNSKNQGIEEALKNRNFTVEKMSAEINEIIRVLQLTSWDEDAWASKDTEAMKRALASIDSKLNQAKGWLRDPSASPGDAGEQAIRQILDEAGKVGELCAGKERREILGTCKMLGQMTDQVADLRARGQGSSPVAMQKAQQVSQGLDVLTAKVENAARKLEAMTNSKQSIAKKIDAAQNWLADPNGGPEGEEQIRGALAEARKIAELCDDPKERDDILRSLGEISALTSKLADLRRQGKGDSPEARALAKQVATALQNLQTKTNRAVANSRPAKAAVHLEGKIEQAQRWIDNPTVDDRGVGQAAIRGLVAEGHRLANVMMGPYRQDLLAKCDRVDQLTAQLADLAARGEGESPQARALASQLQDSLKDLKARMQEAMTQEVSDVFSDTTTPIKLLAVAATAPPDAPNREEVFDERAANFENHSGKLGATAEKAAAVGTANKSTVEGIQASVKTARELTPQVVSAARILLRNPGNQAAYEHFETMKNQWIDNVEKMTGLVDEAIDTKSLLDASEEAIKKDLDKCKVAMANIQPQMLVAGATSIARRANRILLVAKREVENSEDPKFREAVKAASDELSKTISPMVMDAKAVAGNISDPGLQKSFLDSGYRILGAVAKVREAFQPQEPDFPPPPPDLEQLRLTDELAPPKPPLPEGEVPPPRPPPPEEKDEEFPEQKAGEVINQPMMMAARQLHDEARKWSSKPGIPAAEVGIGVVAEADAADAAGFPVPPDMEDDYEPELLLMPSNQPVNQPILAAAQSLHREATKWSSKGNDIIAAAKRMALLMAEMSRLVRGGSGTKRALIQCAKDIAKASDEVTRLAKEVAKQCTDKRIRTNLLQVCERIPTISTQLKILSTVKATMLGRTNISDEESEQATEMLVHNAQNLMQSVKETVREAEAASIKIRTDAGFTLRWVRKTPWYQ
paxillin (P49023, form named): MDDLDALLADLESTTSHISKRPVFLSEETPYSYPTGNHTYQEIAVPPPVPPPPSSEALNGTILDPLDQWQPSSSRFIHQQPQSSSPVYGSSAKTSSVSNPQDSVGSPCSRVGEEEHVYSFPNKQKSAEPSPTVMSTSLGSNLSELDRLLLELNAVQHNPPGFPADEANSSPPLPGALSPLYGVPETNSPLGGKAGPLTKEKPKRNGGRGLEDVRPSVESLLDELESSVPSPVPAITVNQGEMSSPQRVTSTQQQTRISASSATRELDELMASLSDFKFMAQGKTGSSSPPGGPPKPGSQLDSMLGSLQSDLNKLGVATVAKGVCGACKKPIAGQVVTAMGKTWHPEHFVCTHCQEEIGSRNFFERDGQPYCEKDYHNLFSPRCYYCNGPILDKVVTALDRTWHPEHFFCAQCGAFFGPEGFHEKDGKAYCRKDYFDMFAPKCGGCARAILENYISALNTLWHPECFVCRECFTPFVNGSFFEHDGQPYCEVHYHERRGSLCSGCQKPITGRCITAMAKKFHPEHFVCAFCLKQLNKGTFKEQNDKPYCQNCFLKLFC
UniProt P50552: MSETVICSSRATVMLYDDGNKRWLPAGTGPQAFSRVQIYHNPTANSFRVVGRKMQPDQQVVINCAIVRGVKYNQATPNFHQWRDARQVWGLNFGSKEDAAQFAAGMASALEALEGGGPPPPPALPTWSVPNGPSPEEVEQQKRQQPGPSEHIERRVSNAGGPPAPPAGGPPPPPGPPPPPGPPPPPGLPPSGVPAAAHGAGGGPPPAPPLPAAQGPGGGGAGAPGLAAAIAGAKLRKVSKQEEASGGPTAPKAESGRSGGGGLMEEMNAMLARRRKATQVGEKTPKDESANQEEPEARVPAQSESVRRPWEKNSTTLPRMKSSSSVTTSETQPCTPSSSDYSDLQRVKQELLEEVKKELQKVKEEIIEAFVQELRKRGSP

Experiments:
[1] = target: vinculin (UniProt P18206); assay: fluorescence cross-correlation spectroscopy (FCCS); cytosol of live REF52 cells co-expressing one protein tagged with meGFP and the other with TDmKate2; 37°C; association score against the negative control meGFP + TDmKate2 (Fisher's exact test, p-value <0.0001); apparent Ka
[2] = target: paxillin (UniProt P49023); assay: as above
[3] = target: paxillin (UniProt P49023); assay: fluorescence cross-correlation spectroscopy (FCCS); cytosol of live NIH3T3 cells co-expressing one protein tagged with meGFP and the other with TDmKate2; 37°C; association score against the negative control (p-value <0.02)
[4] = target: α-actinin; assay: fluorescence cross-correlation spectroscopy (FCCS); cytosol of live REF52 cells co-expressing one protein tagged with meGFP and the other with TDmKate2; 37°C; association score against the negative control meGFP + TDmKate2 (Fisher's exact test, p-value <0.0001); apparent Ka

- binding [1]: binds
Molecule: VASP (from UniProt P50552 1-380)

- binding [2]: binds
- binding [3]: binds
Molecule: vinculin (from UniProt P18206-2)

- binding [4]: no binding
B1: zyxin (protein, UniProt Q15942 1-572)
chain: MAAPRPSPAISVSVSAPAFYAPQKKFGPVVAPKPKVNPFRPGDSEPPPAPGAQRAQMGRVGEIPPPPPEDFPLPPPPLAGDGDDAEGALGGAFPPPPPPIEESFPPAPLEEEIFPSPPPPPEEEGGPEAPIPPPPQPREKVSSIDLEIDSLSSLLDDMTKNDPFKARVSSGYVPPPVATPFSSKSSTKPAAGGTAPLPPWKSPSSSQPLPQVPAPAQSQTQFHVQPQPQPKPQVQLHVQSQTQPVSLANTQPRGPPASSPAPAPKFSPVTPKFTPVASKFSPGAPGGSGSQPNQKLGHPEALSAGTGSPQPPSFTYAQQREKPRVQEKQHPVPPPAQNQNQVRSPGAPGPLTLKEVEELEQLTQQLMQDMEHPQRQNVAVNELCGRCHQPLARAQPAVRALGQLFHIACFTCHQCAQQLQGQQFYSLEGAPYCEGCYTDTLEKCNTCGEPITDRMLRATGKAYHPHCFTCVVCARPLEGTSFIVDQANRPHCVPDYHKQYAPRCSVCSEPIMPEPGRDETVRVVALDKNFHMKCYKCEDCGKPLSIEADDNGCFPLDGHVLCRKCHTARAQT
